Data as given in PubChem BioAssay AID743172 (National Center for Advancing Translational Sciences (NCATS), 2013).
Inconclusive results, whose numbers are uncertain, are shown. Potencies of inconclusive entries are doubtful fits and often do not repeat.

Assay: Extended Characterization of HPGD Inhibitors: PGE2 Assay in LNCaP Cells
Conditions: PGE2 HTRF level, 16 h; active means well fitted activation curve with a large enough effect; inconclusive means small, poorly fitted or top-dose-only effect; inactive means no such curve, though single readings can be large or run the other way
Excerpt: The central role of HPGD is to inactivate prostaglandins such as prostaglandin E2 (PGE2) or prostaglandin D2 (PGD2). These prostaglandins are involved in a number of processes, including inflammation, differentiation, and cellular signaling, which makes HPGD an important target for pharmacological intervention. A number of prostaglandins of particular biological interest have been identified as substrates of HPGD. […] Over-production of PGE2 has been reported to promote tumor-associated neovascularization, cell proliferation, and tumor growth. […] In this orthogonal assay, we set out to measure if compounds were able to increase PGE2 production NIH Chemical Genomics Center [NCGC] NIH Molecular Libraries Probe Centers Network [MLPCN] MLPCN Grant: MH084681 Assay Submitter (PI): Structural Genomics Consortium
A549 cells, LNCaP cells or media were dispensed in 384-well plates (ProxiPlate-384 Plus, PerkinElmer, Shelton, CT) at 5,000 cells/9.9 uL/well using a CappAero384 multichannel pipette (Odense, Denmark). […] Time-resolved fluorescence intensity (320 nm excitation, 615 and 665 nm emission) was measured using an Envision plate reader (PerkinElmer). Data was expressed as the ratio of 665 nm/615 nm emissions. Concentration (pg/mL) of samples were calculated from a 4-parameter logistic calibration curves of the PGE2 standards.

Compound | Potency
Cc1cc(-c2nnc3n2CCCCC3)c(C)n1-c1ccc(C(C)(C)C)cc1 | inconclusive: 4430 nM [activator, full curve, poor fit]
Cc1cccc(-n2cnc3cc(C(=O)N4CCCC(C)C4)ccc32)c1 (configuration not stated) | inconclusive: 1110 nM [activator, full curve, poor fit]
